Measurements taken from paper PMC3647048.
These are yes or no findings as the source states them, for the method shown. In cells and extracts the contact can be indirect. Some binding calls cover weakened binding; strength is not graded here. One block for each binder: values may come before it.

What was measured:
[1] = biological target: LIN9 (mouse (endogenous in E14 ESCs)) (UniProt Q8C735); test: co-IP; nuclear extracts of mouse ESCs immunoprecipitated with LIN9 antibody (ab62329) overnight at 4°C, Protein-G Dynabeads, washed 5 times with TNN (120 mM NaCl, 0.5% NP40); nonspecific IgG as control; immunoblotting
[2] = biological target: T1, LIN9 (mouse (endogenous in E14 ESCs)), Q8C735; test: as above; details: remark: other sources report otherwise
T1 chain: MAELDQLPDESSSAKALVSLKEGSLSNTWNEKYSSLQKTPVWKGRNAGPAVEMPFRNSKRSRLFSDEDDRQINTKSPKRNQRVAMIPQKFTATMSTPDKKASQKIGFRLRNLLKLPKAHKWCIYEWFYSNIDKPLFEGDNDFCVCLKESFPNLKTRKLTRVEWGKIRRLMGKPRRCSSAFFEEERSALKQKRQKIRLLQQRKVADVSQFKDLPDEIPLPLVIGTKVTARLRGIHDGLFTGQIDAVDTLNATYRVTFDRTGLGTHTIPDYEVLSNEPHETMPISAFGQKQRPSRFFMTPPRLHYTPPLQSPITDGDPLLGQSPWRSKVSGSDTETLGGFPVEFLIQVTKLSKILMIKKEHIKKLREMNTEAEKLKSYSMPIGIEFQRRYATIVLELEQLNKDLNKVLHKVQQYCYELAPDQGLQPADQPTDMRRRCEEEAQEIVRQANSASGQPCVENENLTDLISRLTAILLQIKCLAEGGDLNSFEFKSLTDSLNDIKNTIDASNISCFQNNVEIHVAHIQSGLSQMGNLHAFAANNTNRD

binding [1]: binds
B1: LIN54 (protein, UniProt Q571G4 1-749)
chain: MEVVPAEVNSLLPDDIMDTAITLVDEDSIEAVIVSSPIPMETELEEIVNINSTGDSTATPISTEPITVYSNHTNQVAVNTTVSKADSNTTVKPAFPSGLQKLGAQTPVTISANQIILNKVSQTSDLKLGNQTLKPDGQKLILTTLGKSGSPIVLALPHSQLPQAQKVTAQAQPGDAKLPPQQIKVVTIGGRPEVKPVIGVSALTPGSQLINTTTQPSVLQTQQLKTVQIAKKPRTPTSGPVITKLIFAKPINSKAVTGQTTQASPPVVTGRVLSQSTPGTPSKTITISESGVIGSTLNSTTQTPNKIAISPLKSPNKTVKSAVQTITVGGMSTSQFKTIIPLATAPNVQQIQVPGSKFHYVRLVTATTASSSAQPVSQSPSVNTQPLQQAKPVVVNTTPVRMSVPFVQAQAVKQVVPKPINSTSQIVTTSQPQQRLIMPATPLPQIQPNLTNLPPGTVLAPAPGTGNVGYAVLPAQYVTQLQQSSYVSIASNSNFTGTSGIQTQARLPFNGIIPSESTSRPRKPCNCTKSLCLKLYCDCFANGEFCNNCNCTNCYNNLEHENERQKAIKACLDRNPEAFKPKIGKGKEGESDRRHSKGCNCKRSGCLKNYCECYEAKIMCSSICKCIGCKNFEESPERKTLMHLADAAEVRVQQQTAAKTKLSSQISDLLTRPTPALNSAGGKLPFTFVTKEVAEATCNCLLAQAEQADKKGKSKAAAERMILEEFGRCLMSVINSAGKAKSDPCAMHC

binding [2]: no binding
B2: p107, Q64701 1-1063 (protein)
chain: MFEDEPHAEGAAAVAAAREALQALCQELNLDEGSAAEALDDFTAIRGNYSLEGEVIHWLACSLYVACRKSIIPTVGKGVMEGNCVSLTRILRSAKLSLIQFFSKMKKWMDMSNLPQEFRERIERLERNFEVSTVIFKKFEPIFLDIFQNPYEEPPKLPRSRKQRRIPCSVKDLFNFCWTLFVYTKGNFRMIGDDLVNSYHLLLCCLDLIFANAIMCPNRRDLLNPSFKGLPSDFHAPDFKAAEEPPCIIAVLCDLHDGLLVEAKGIKEHYFKPYISKLFDKKILKGECLLDLSSFTDNSKAVNKEYEEYVLTVGDFDERIFLGADAEEEIGTPRKFTADTPFGKLTSQASVECNLQQHFEKKRSFAPSTPLTGRRYLQEKEAVTTPVASATQSVSRLQSIVAGLKSAPSEQLLNIFESCMRNPMGNIIKIVKGIGETFCQHYTQSTDKQPGSHIDFAVNRLKLAEILYYKILETIMVQETRRLHGMDMSVLLEQDIFHKSLMACCLEIVLFAYSSPRTFPWIIEVLDLQPFYFYKVIEVVIRSEEGLSRDMVKHLNSIEEQILESLAWTNNSALWEALHASANRVPSCEEVIFPNNFEIGNGGNVQGHLPMMPMSPIIHPRVKEVRTDSGSLRQDMQPLSPISVHERYSSPAAGSAKRRLFGDDPPKDTLMDKIMAEGTKLKIAPSSVTAESLSISPGQALLTMATTTVTGTTGRKVTVPLHGIANDAGEITLVPISMNPTQESTAESPVSLTAQSLIGTSPKQTHLTKAQDAHLTGVSKPKRTGSLALFYRKVYHLASVRLRDLCLKLDVSNELRRKIWTCFEFTLVHCPDLMKDRHLDQLLLCAFYIMAKVTKEERTFQEIMKSYRNQPQANSHVYRSVLLKSIPGGVVVYNGDCEMTDGDIEDATKTPNCSSEPVKEERGDLIKFYNTVYVGRVKSFALKYDLSNQDHIMDAPPLSPFPHIKQQPGSPRRISQQHSLYVSPHKNGAGLTPRSALLYKFNGSPSKSLKDINNMIRQGEQKTKKRVIAISGDADSPAKRLCQENDDVLLKRLQDVVSERANH

binding [1]: binds
B3: LIN37 (protein, UniProt Q9D8N6 1-246)
chain: MFPVKVKVEKSEMEMAKARNQLDAVLQCLLEKSHMDRERLDEEAGKTPLDTHNKDCSIAATGKRPSARFPHQRRKKRREMDDGLAEGGPQRSNTYVIKLFDRSVDLAQFSENTPLYPICRAWMRNSPTVRERERSPGSPLPPLPEDGEGSEVINSKNRDVYKLPPPTAPGPLGDACRSRIPSPLQPETEGTPDDEPSEPEPSPSTLIYRNMQRWKRIRQRWKEASHRNQLRYSESMKILREMYDRQ
